{
  "source": "the supplement of paper PMC8728848",
  "binders": {"B1": {"name": "GS7807Q-bfa-507-19-507 (Bacteroides fragilis) (protein)", "chain": "ASCNKFDDLNTNPDAATKVTAPMLATKLILNITQQGSAKNFVYHSMLSKQIAWSENASDEQYNLFGRTDFDGYTILTNCQKMVDAANEGDKDSYAALAKFMKAYKLFYKSLEVGDIPYSDALKGEEGVQKPKYDTQKEVMRQVLEDLEEAYTLFSSGSDFDGDPIFGGDTENWKKTVVAFELKVLTHLCKKDTDADLKVKERFARLVSSGSLMTSNADNFQLVYSNKAGQLYPFYYTQNKHSDYLMMSSVIIDNLKKFNDYRMFYYASPAKAQTDKGIKDSEWDAYLSIDPSDSYSNISVLYGKGEFCLANLRYTRVPEGEPLMRLSYAEQNFILAEGAVRGWISEDASTYYKKGIEASMNFIADNTPDKEEYTHGRTITQEYIQEYLAQPVIQLSGDKEKDLEMILLQRYLASFLQHPYDAYYDYRRTGYPVLPINPSTNLNTEKNKIPTRWMYPEAEFSYNPDNANEAVQRQYNGSDDVNKLMWILQ"}},
  "assay_in_all_cases": "glycan array binding signal (z-score within array); higher = stronger binding",
  "conditions_in_all_cases": "glycan notation: IUPAC condensed, linker removed",
  "key": {"[1]": {"target": "Gal(b1-4)GlcNAc(b1-3)Gal(b1-4)Glc", "how_it_was_run": "(§1)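 Columns mapping to the same glycan were averaged after glycan names were converted to IUPAC-condensed notation. The data come from 3228 arrays in the Consortium for Functional Glycomics database, limited to those with an available protein sequence. Binding is reported as a within-array Z-score averaged across arrays of one protein sequence and across linkers.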"}, "[2]": {"target": "Gal(b1-4)GlcNAc(b1-3)Gal(b1-4)GlcNAc", "how_it_was_run": "as §1"}, "[3]": {"target": "Gal(b1-4)GlcNAc(b1-3)Gal(b1-4)GlcNAc(b1-2)Man(a1-3)[Gal(b1-4)GlcNAc(b1-3)Gal(b1-4)GlcNAc(b1-2)Man(a1-6)]Man(b1-4)GlcNAc(b1-4)GlcNAc", "how_it_was_run": "as §1"}, "[4]": {"target": "Gal(b1-4)GlcNAc(b1-3)Gal(b1-4)GlcNAc(b1-2)Man(a1-3)[Gal(b1-4)GlcNAc(b1-3)Gal(b1-4)GlcNAc(b1-2)Man(a1-6)]Man(b1-4)GlcNAc(b1-4)[Fuc(a1-6)]GlcNAc", "how_it_was_run": "as §1"}, "[5]": {"target": "Gal(b1-4)GlcNAc(b1-3)Gal(b1-4)GlcNAc(b1-2)[Gal(b1-4)GlcNAc(b1-3)Gal(b1-4)GlcNAc(b1-6)]Man(a1-6)[Gal(b1-4)GlcNAc(b1-3)Gal(b1-4)GlcNAc(b1-2)Man(a1-3)]Man(b1-4)GlcNAc(b1-4)GlcNAc", "how_it_was_run": "as §1"}, "[6]": {"target": "Gal(b1-4)GlcNAc(b1-3)Gal(b1-4)GlcNAc(b1-2)[Gal(b1-4)GlcNAc(b1-3)Gal(b1-4)GlcNAc(b1-6)]Man(a1-6)[Gal(b1-4)GlcNAc(b1-3)Gal(b1-4)GlcNAc(b1-2)Man(a1-3)]Man(b1-4)GlcNAc(b1-4)[Fuc(a1-6)]GlcNAc", "how_it_was_run": "as §1"}, "[7]": {"target": "Gal(b1-4)GlcNAc(b1-3)Gal(b1-4)GlcNAc(b1-3)Gal(b1-4)GlcNAc", "how_it_was_run": "as §1"}, "[8]": {"target": "Gal(b1-4)GlcNAc(b1-3)Gal(b1-4)GlcNAc(b1-3)Gal(b1-4)GlcNAc(b1-2)Man(a1-3)[Gal(b1-4)GlcNAc(b1-3)Gal(b1-4)GlcNAc(b1-3)Gal(b1-4)GlcNAc(b1-2)Man(a1-6)]Man(b1-4)GlcNAc(b1-4)GlcNAc", "how_it_was_run": "as §1"}, "[9]": {"target": "Gal(b1-4)GlcNAc(b1-3)Gal(b1-4)GlcNAc(b1-3)Gal(b1-4)GlcNAc(b1-2)Man(a1-3)[Gal(b1-4)GlcNAc(b1-3)Gal(b1-4)GlcNAc(b1-3)Gal(b1-4)GlcNAc(b1-2)Man(a1-6)]Man(b1-4)GlcNAc(b1-4)[Fuc(a1-6)]GlcNAc", "how_it_was_run": "as §1"}, "[10]": {"target": "Gal(b1-4)GlcNAc(b1-3)Gal(b1-4)GlcNAc(b1-3)Gal(b1-4)GlcNAc(b1-2)[Gal(b1-4)GlcNAc(b1-3)Gal(b1-4)GlcNAc(b1-3)Gal(b1-4)GlcNAc(b1-6)]Man(a1-6)[Gal(b1-4)GlcNAc(b1-3)Gal(b1-4)GlcNAc(b1-3)Gal(b1-4)GlcNAc(b1-2)Man(a1-3)]Man(b1-4)GlcNAc(b1-4)[Fuc(a1-6)]GlcNAc", "how_it_was_run": "as §1"}, "[11]": {"target": "Gal(b1-4)GlcNAc(b1-3)Gal(b1-4)GlcNAc(b1-3)Gal(b1-4)GlcNAc(b1-3)Gal(b1-4)GlcNAc(b1-2)Man(a1-3)[Gal(b1-4)GlcNAc(b1-3)Gal(b1-4)GlcNAc(b1-3)Gal(b1-4)GlcNAc(b1-3)Gal(b1-4)GlcNAc(b1-2)Man(a1-6)]Man(b1-4)GlcNAc(b1-4)GlcNAc", "how_it_was_run": "as §1"}, "[12]": {"target": "Gal(b1-4)GlcNAc(b1-3)Gal(b1-4)GlcNAc(b1-3)Gal(b1-4)GlcNAc(b1-3)Gal(b1-4)GlcNAc(b1-2)Man(a1-3)[Gal(b1-4)GlcNAc(b1-3)Gal(b1-4)GlcNAc(b1-3)Gal(b1-4)GlcNAc(b1-3)Gal(b1-4)GlcNAc(b1-2)Man(a1-6)]Man(b1-4)GlcNAc(b1-4)[Fuc(a1-6)]GlcNAc", "how_it_was_run": "as §1"}, "[13]": {"target": "Gal(b1-4)GlcNAc(b1-3)Gal(b1-4)GlcNAc(b1-3)Gal(b1-4)GlcNAc(b1-3)Gal(b1-4)GlcNAc(b1-2)[Gal(b1-4)GlcNAc(b1-3)Gal(b1-4)GlcNAc(b1-3)Gal(b1-4)GlcNAc(b1-3)Gal(b1-4)GlcNAc(b1-6)]Man(a1-6)[Gal(b1-4)GlcNAc(b1-3)Gal(b1-4)GlcNAc(b1-3)Gal(b1-4)GlcNAc(b1-3)Gal(b1-4)GlcNAc(b1-2)Man(a1-3)]Man(b1-4)GlcNAc(b1-4)[Fuc(a1-6)]GlcNAc", "how_it_was_run": "as §1"}, "[14]": {"target": "Gal(b1-4)GlcNAc(b1-3)Gal(b1-4)GlcNAc(b1-3)Gal(b1-4)GlcNAc(b1-3)Gal(b1-4)GlcNAc(b1-3)Gal(b1-4)GlcNAc(b1-2)Man(a1-3)[Gal(b1-4)GlcNAc(b1-3)Gal(b1-4)GlcNAc(b1-3)Gal(b1-4)GlcNAc(b1-3)Gal(b1-4)GlcNAc(b1-3)Gal(b1-4)GlcNAc(b1-2)Man(a1-6)]Man(b1-4)GlcNAc(b1-4)GlcNAc", "how_it_was_run": "as §1"}, "[15]": {"target": "Gal(b1-4)GlcNAc(b1-3)Gal(b1-4)GlcNAc(b1-3)Gal(b1-4)GlcNAc(b1-3)Gal(b1-4)GlcNAc(b1-3)Gal(b1-4)GlcNAc(b1-2)Man(a1-3)[Gal(b1-4)GlcNAc(b1-3)Gal(b1-4)GlcNAc(b1-3)Gal(b1-4)GlcNAc(b1-3)Gal(b1-4)GlcNAc(b1-3)Gal(b1-4)GlcNAc(b1-2)Man(a1-6)]Man(b1-4)GlcNAc(b1-4)[Fuc(a1-6)]GlcNAc", "how_it_was_run": "as §1"}, "[16]": {"target": "Gal(b1-4)GlcNAc(b1-3)Gal(b1-4)GlcNAc(b1-3)Gal(b1-4)GlcNAc(b1-3)Gal(b1-4)GlcNAc(b1-3)Gal(b1-4)GlcNAc(b1-2)[Gal(b1-4)GlcNAc(b1-3)Gal(b1-4)GlcNAc(b1-3)Gal(b1-4)GlcNAc(b1-3)Gal(b1-4)GlcNAc(b1-3)Gal(b1-4)GlcNAc(b1-6)]Man(a1-6)[Gal(b1-4)GlcNAc(b1-3)Gal(b1-4)GlcNAc(b1-3)Gal(b1-4)GlcNAc(b1-3)Gal(b1-4)GlcNAc(b1-3)Gal(b1-4)GlcNAc(b1-2)Man(a1-3)]Man(b1-4)GlcNAc(b1-4)[Fuc(a1-6)]GlcNAc", "how_it_was_run": "as §1"}, "[17]": {"target": "Gal(b1-4)GlcNAc(b1-3)Gal(b1-4)GlcNAc(b1-3)Gal(b1-4)GlcNAc(b1-3)Gal(b1-4)GlcNAc(b1-3)Gal(b1-4)GlcNAc(b1-3)Gal(b1-4)GlcNAc(b1-2)Man(a1-3)[Gal(b1-4)GlcNAc(b1-3)Gal(b1-4)GlcNAc(b1-3)Gal(b1-4)GlcNAc(b1-3)Gal(b1-4)GlcNAc(b1-3)Gal(b1-4)GlcNAc(b1-3)Gal(b1-4)GlcNAc(b1-2)Man(a1-6)]Man(b1-4)GlcNAc(b1-4)GlcNAc", "how_it_was_run": "as §1"}, "[18]": {"target": "Gal(b1-4)GlcNAc(b1-3)Gal(b1-4)GlcNAc(b1-3)GalNAc", "how_it_was_run": "as §1"}, "[19]": {"target": "Gal(b1-4)GlcNAc(b1-3)Gal(b1-4)GlcNAc(b1-3)[Gal(b1-4)GlcNAc(b1-3)Gal(b1-4)GlcNAc(b1-6)]GalNAc", "how_it_was_run": "as §1"}},
  "note": "This is one part of the list.",
  "data": [
    {"binder": "B1", "values": [
      {"measurement": "glycan array binding signal (z-score)", "setting": "[1]", "value": -0.734},
      {"measurement": "glycan array binding signal (z-score)", "setting": "[2]", "value": -1.12},
      {"measurement": "glycan array binding signal (z-score)", "setting": "[3]", "value": 3.08},
      {"measurement": "glycan array binding signal (z-score)", "setting": "[4]", "value": 0.335},
      {"measurement": "glycan array binding signal (z-score)", "setting": "[5]", "value": 0.112},
      {"measurement": "glycan array binding signal (z-score)", "setting": "[6]", "value": -0.21},
      {"measurement": "glycan array binding signal (z-score)", "setting": "[7]", "value": 0.693},
      {"measurement": "glycan array binding signal (z-score)", "setting": "[8]", "value": 2.7},
      {"measurement": "glycan array binding signal (z-score)", "setting": "[9]", "value": 1.56},
      {"measurement": "glycan array binding signal (z-score)", "setting": "[10]", "value": 2.07},
      {"measurement": "glycan array binding signal (z-score)", "setting": "[11]", "value": -0.356},
      {"measurement": "glycan array binding signal (z-score)", "setting": "[12]", "value": 1.2},
      {"measurement": "glycan array binding signal (z-score)", "setting": "[13]", "value": 1.33},
      {"measurement": "glycan array binding signal (z-score)", "setting": "[14]", "value": -0.15},
      {"measurement": "glycan array binding signal (z-score)", "setting": "[15]", "value": 2.35},
      {"measurement": "glycan array binding signal (z-score)", "setting": "[16]", "value": 0.164},
      {"measurement": "glycan array binding signal (z-score)", "setting": "[17]", "value": -0.371},
      {"measurement": "glycan array binding signal (z-score)", "setting": "[18]", "value": -0.268},
      {"measurement": "glycan array binding signal (z-score)", "setting": "[19]", "value": -0.074}
    ]}
  ]
}
